US20200261427A1 (Al Therapeutics, Inc., priority 2019, published 2020)

Assay: Antioxidant screen in Transcutol
Format: physicochemical
Details: calculated from 4-week data at 40° C.
Method: Since there was significant degradation in diethylene glycol monoethyl ether (TC) after 1 week, and TC can generate peroxides, it was selected as the solvent for the antioxidant screen. […] (1) No antioxidant; […] […] The 4-week data at 40° C. was used to calculate the main effects of the two antioxidants and their interaction (Box et al., 1978) for the assay values. The positive effect of BHA (+23.8) was twice the positive effect of Vit. E (+11.6).

SMILES | main effect of the antioxidant on rapamycin assay values
Cc1c(C)c2c(c(C)c1O)CCC(C)(CCCC(C)CCCC(C)CCCC(C)C)O2 (racemic) [Vit. E, dl-alpha-tocopherol] | +11.6
COc1ccc(O)c(C(C)(C)C)c1 [BHA, butylated hydroxyanisol] | +23.8
